Results from paper doi:10.1101/2020.08.12.248419.

T1: AtPIP5K2 bait protein (fusion to an N-terminal OST4 membrane anchor, in pBT3-C-OST4) (Arabidopsis thaliana) (UniProt Q8L796)
T1 sequence: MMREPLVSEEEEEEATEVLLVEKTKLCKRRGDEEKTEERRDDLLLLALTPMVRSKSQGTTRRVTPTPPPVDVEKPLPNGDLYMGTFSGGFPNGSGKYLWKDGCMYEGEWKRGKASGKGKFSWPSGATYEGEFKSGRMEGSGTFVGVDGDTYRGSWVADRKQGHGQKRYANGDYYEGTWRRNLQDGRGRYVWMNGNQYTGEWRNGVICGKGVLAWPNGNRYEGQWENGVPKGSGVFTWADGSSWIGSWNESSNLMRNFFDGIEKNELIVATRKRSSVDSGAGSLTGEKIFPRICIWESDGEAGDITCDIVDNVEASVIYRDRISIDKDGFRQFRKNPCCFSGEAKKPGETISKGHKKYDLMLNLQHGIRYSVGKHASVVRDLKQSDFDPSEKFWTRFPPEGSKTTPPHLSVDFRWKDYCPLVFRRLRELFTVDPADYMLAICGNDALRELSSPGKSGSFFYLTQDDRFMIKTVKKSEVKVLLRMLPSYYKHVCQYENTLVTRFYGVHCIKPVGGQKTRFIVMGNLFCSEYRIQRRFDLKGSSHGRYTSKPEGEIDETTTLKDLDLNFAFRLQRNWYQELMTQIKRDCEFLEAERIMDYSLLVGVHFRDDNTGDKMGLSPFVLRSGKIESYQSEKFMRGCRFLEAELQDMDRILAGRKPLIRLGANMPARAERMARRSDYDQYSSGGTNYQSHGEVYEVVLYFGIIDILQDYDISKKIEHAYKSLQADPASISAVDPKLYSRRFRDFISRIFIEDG

B1: MBP-AtPIP5K2 (enzyme, UniProt Q8L796 1-754)
chain: T1 sequence

What was measured:
[1] = target: T1, AtPIP5K2 bait protein (fusion to an N-terminal OST4 membrane anchor, in pBT3-C-OST4) (Arabidopsis thaliana); test: two-hybrid
GST protein alone = test: pull-down
GST-NtRac5 (tobacco) = GST-NtRac5 (tobacco) (UniProt Q9S820); test: pull-down

Row | Molecule | binding [1] | binding (GST protein alone) | binding (GST-NtRac5 (tobacco))
1 | NtRac5 prey protein (in pPR3-N) (tobacco) | binds |  | 
2 | B1 |  | no binding | binds

No constants are given. Whether binding was seen depends on the method and setting. For part of these data: Binding calls can cover weak binding; strength is not graded here. Tags and fused reporters may be left off the sequences shown.
